Source: publication doi:10.1101/2022.03.06.483161
Results are given in words; binding and its absence hold for the method and conditions named. Binding seen in cells or lysates may run through a third protein. Some entries that bind do so weakly or less than the wild type.

Sequences of proteins named here, by UniProt entry; tags and fusion partners are left off.
UniProt O00570: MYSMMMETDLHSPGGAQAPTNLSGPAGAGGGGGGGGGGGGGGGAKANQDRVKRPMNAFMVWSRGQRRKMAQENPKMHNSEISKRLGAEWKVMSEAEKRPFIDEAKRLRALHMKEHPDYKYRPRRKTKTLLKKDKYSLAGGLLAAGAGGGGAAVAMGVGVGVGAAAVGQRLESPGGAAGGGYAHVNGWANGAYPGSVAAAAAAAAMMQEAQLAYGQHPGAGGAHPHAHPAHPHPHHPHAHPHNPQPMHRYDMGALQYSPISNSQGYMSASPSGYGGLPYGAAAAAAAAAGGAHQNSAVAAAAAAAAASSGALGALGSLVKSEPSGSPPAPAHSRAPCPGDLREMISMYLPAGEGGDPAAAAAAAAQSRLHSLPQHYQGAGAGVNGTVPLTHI

How the values were obtained:
[1] = biological target: T1, NKX2-1 (endogenous) (human (endogenous in DMS 79, NCI-H187, NCI-H209)) (UniProt P43699); experiment: proximity ligation
T1 sequence: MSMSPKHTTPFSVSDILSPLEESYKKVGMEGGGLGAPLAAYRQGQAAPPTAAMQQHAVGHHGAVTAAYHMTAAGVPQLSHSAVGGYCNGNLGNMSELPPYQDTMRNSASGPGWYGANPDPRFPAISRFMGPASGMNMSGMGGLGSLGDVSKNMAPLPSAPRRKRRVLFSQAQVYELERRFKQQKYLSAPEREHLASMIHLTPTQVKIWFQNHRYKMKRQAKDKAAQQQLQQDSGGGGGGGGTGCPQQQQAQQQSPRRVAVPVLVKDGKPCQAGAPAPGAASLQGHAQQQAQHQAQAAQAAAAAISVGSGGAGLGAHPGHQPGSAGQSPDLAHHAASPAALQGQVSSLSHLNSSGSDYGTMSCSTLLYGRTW

[2] = biological target: T1, NKX2-1 (endogenous) (human (endogenous in DMS 79, NCI-H187, NCI-H209)); experiment: co-IP

**Q.** How did the binding [1] turn out when “SOX1 (endogenous) (from UniProt O00570 1-391)” was run?
**A.** binds

**Q.** What about the binding [2] of the same substance?
**A.** binds
